Source: PubChem BioAssay AID493014 (National Center for Advancing Translational Sciences (NCATS), 2011)
Hit rate of the full screen: of about 340,000 compounds, about 170 (0.05%) were called active. The inconclusive results got no clear call from the source; some entries with a clear call stand among them for comparison. Calls come from the whole dose curve; as a rule, active = well fitted inhibition curve with a large enough effect in the signal ratio, with a control signal flat (not every such curve was filed as active); inconclusive = small, poorly fitted or top-dose-only effect, or effect the other way, or a change in a side signal; inactive = flat fitted curve, though single readings scatter; the % refers to the signal ratio. Potencies of inconclusive entries are doubtful fits and often do not repeat.

assay: qHTS Assay to Find Inhibitors of Chronic Active B-Cell Receptor Signaling; conditions: ABC-DLBCL IkBa-CBG/CBR reporter, luminescence ratio (green luciferase fused to IkBa over red control in TMD8 lymphoma cells), 4 h; activity change, negative = inhibition: at 46.1 µM (top of the series);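 for activity change, negative = inhibition: plate controls were basal doxycycline-induced cells for no effect and cells given 10 µM MG132 for full effect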
Procedure, shortened: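 TMD8 ABC-DLBCL cells carrying doxycycline-inducible green luciferase fused to IkappaBalpha plus unfused red luciferase were exposed to compounds (up to 46 uM) for 4 hrs at 37C. Activity came from the overlap-corrected green/red luminescence ratio.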
Potency is the fitted concentration of half-maximal effect.

Row | SMILES | activity change, negative = inhibition | Potency
1 | CCOC(=O)CC(=O)Nc1nnc(CC(C)C)s1 | inconclusive: 13.5% | –
2 | COc1ccc(NC(=O)c2sc3nc(C)cc(C)c3c2N)cc1 | inconclusive: -12.1% | –
3 | Cc1ccc2c(c1)N=C(c1ccc(Cl)cc1)CO2 | inconclusive: 20.4% | –
4 | COc1ccc(-c2cc(C3CCN(Cc4cccc(C(F)(F)F)c4)CC3)[nH]n2)cc1 | inactive | –
5 | Cc1onc(-c2ccccc2)c1C(=O)N/N=C/C(Br)=C/c1ccccc1 | – | inconclusive: 20.6 µM [falling, single point]
6 | COc1ccc(C)cc1NC(=O)C1CC(=O)OC12CCCCC2 (stereo not drawn) | inconclusive: -1.26% | –
7 | CCn1c(SCC(=O)Nc2ccc3c(c2)OCO3)nc2c1c(=O)n(C)c(=O)n2C | inconclusive: -15.1% | –
8 | Cc1ccc(C(NC(=O)N2CCN(C)CC2)C(Cl)Cl)cc1F (stereo not drawn) | inconclusive: -25.7% | –
9 | O=S(=O)(c1cccc(C(F)(F)F)c1)n1c(/C=C/c2ccccc2)nc2ccccc21 | – | inconclusive: 35.5 µM [falling, single point]
10 | CCc1sc(C(=O)NCCCn2ccnc2)cc1Br | inactive | –
11 | O=[N+]([O-])c1ccc2c(c1)CNc1ccccc1O2 | inconclusive: 1.2% | –
12 | CN(C)S(=O)(=O)Oc1cccc(C(=O)Nc2ccc([N+](=O)[O-])cc2)c1 | inconclusive: 0.353% | –
13 | O=C(CSc1nnc(CNC(=O)c2cccs2)o1)c1ccc(Cl)cc1 | inconclusive: 12% | –
14 | CCOC(=O)C1CCN(c2c(Nc3ccc4c(c3)OCCO4)c(=O)c2=O)CC1 | inconclusive: 1.52% | –
15 | C/C(=N\OCc1ccccc1)c1c(O)cc(C(C)C)n(-c2ccccc2)c1=O | inconclusive: 2.37% | –
16 | O=C(CC(SCCO)c1ccc([N+](=O)[O-])cc1)c1ccco1 (stereo not drawn) | inactive | –
17 | CCC(=O)Nc1ccc(C(=O)Nc2cccc(OC)c2)cc1 | – | inconclusive: 9.2 µM [falling, partial curve, poor fit]
18 | N/C(=N\OC(=O)N1CCOCC1)c1ccccc1 | – | inconclusive: 35.5 µM [falling, single point]
19 | O=C(CSc1n[nH]c(-c2ccco2)n1)N1c2ccccc2Sc2ccccc21 | – | inconclusive: 17.8 µM [falling, partial curve, poor fit]
20 | OC(CNCc1ccccc1Cl)C(F)(F)F (stereo not drawn) | inconclusive: -8.38% | –
21 | COc1ccc2[nH]c(C)c(CCNC(=S)Nc3cccc(C)c3C)c2c1 | inactive | –
22 | CCN1/C(=C2\C(=O)N(C)C(=S)N2C)C=Cc2ccccc21 | inconclusive: 27.1% | –
23 | COc1cc(C)c(Cl)cc1S(=O)(=O)n1cnc2ccccc21 | – | inconclusive: 6.51 µM [falling, single point]

Shown with tabs: 2 of the compounds above.
Row	SMILES	activity change, negative = inhibition	Potency
2	COc1ccc(NC(=O)c2sc3nc(C)cc(C)c3c2N)cc1	inconclusive: -12.1%	–
21	COc1ccc2[nH]c(C)c(CCNC(=S)Nc3cccc(C)c3C)c2c1	inactive	–
